Reference: PubChem BioAssay AID504764 (Drosophila RNAi Screening Center, 2011)
In all, the deposit lists about 22,000 reagents; shown is a random part of those that have a named target and a result. Of all reagents, 403 (1.9%) were called active. 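Unnormalised raw counts per well; ratio z-scores behind the hit calls and whether each hit raises or lowers signal are not deposited.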 Unmarked entries are inactive. Not stated in the record: the amount of reagent.

Purpose: 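Genome-wide screen for regulators of Notch-driven gene expression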 (primary screen)
System: Drosophila Kc167 cells
Reagent: long dsRNA against Drosophila genes
Timing: about 5 days (4 days dsRNA, then 24 h after transfection)
Conditions: transfection of constitutively active membrane-tethered Notch lacking the extracellular domain, read 24 h later
Detection: 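Light from a Notch-responsive E(spl)m3 luciferase reporter under active Notch, with control-promoter and no-Notch reporter wells to normalise; raw counts from paired wells a and b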
Scale: induced reporter light, run 1, well a and induced reporter light, run 1, well b: higher = more light from the Notch target reporter with active Notch; control promoter light, run 1, well a and control promoter light, run 1, well b: higher = more light from the viral control promoter (cell number, transfection, viability); uninduced reporter light, run 1, well a: higher = more light from the Notch target reporter without active Notch
Active means: 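Hit if the duplicate-averaged log2 ratio of induced to control-promoter light gives a plate-wise z beyond ±2, or induced to uninduced beyond ±1.8; weak-control or discordant-duplicate wells dropped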
Meaning of the calls: active = modifier hit (raised or lowered Notch signal); inactive = not a hit

With knock-down of CG18585 [DRSC02678], the screen gave induced reporter light, run 1, well a = 2.16e5; induced reporter light, run 1, well b = 1.80e5; control promoter light, run 1, well a = 1.93e5; control promoter light, run 1, well b = 1.89e5; uninduced reporter light, run 1, well a = 17130. Against CG4751 [DRSC02776], the entry reads induced reporter light, run 1, well a = 2.06e5; induced reporter light, run 1, well b = 2.16e5; control promoter light, run 1, well a = 2.06e5; control promoter light, run 1, well b = 1.94e5; uninduced reporter light, run 1, well a = 17500. SppL [DRSC15228] scored induced reporter light, run 1, well a = 1.52e5; induced reporter light, run 1, well b = 1.38e5; control promoter light, run 1, well a = 1.66e5; control promoter light, run 1, well b = 1.81e5; uninduced reporter light, run 1, well a = 13620. Against Stt3B [DRSC16781] the deposit lists induced reporter light, run 1, well a = 1.64e5; induced reporter light, run 1, well b = 1.74e5; control promoter light, run 1, well a = 1.97e5; control promoter light, run 1, well b = 1.84e5; uninduced reporter light, run 1, well a = 14785. Depletion of Pcl [DRSC07503] resulted in: induced reporter light, run 1, well a = 83545; induced reporter light, run 1, well b = 87415; control promoter light, run 1, well a = 1.74e5; control promoter light, run 1, well b = 2.11e5; uninduced reporter light, run 1, well a = 6950. For Idh3b [DRSC16040], the values are induced reporter light, run 1, well a = 2.58e5; induced reporter light, run 1, well b = 2.36e5; control promoter light, run 1, well a = 3.53e5; control promoter light, run 1, well b = 3.62e5; uninduced reporter light, run 1, well a = 15270.

Depletion of dbf [DRSC02570] resulted in: induced reporter light, run 1, well a = 1.54e5; induced reporter light, run 1, well b = 1.78e5; control promoter light, run 1, well a = 92260; control promoter light, run 1, well b = 1.15e5; uninduced reporter light, run 1, well a = 21055. CG9101 [DRSC20152] gave induced reporter light, run 1, well a = 48910; induced reporter light, run 1, well b = 56750; control promoter light, run 1, well a = 78760; control promoter light, run 1, well b = 85860; uninduced reporter light, run 1, well a = 9538. For Tsp42Ef [DRSC06191], the entry reads induced reporter light, run 1, well a = 2.18e5; induced reporter light, run 1, well b = 1.79e5; control promoter light, run 1, well a = 2.86e5; control promoter light, run 1, well b = 2.36e5; uninduced reporter light, run 1, well a = 16720. CG3701 (retired record) [DRSC04408] gave induced reporter light, run 1, well a = 2.63e5; induced reporter light, run 1, well b = 2.21e5; control promoter light, run 1, well a = 2.18e5; control promoter light, run 1, well b = 2.12e5; uninduced reporter light, run 1, well a = 17970. With knock-down of CG3701 (retired record) [DRSC04409], the record shows induced reporter light, run 1, well a = 2.54e5; induced reporter light, run 1, well b = 2.39e5; control promoter light, run 1, well a = 2.29e5; control promoter light, run 1, well b = 2.05e5; uninduced reporter light, run 1, well a = 17435. After knock-down of CG42544 [DRSC12451], the record shows induced reporter light, run 1, well a = 1.68e5; induced reporter light, run 1, well b = 1.44e5; control promoter light, run 1, well a = 1.22e5; control promoter light, run 1, well b = 1.03e5; uninduced reporter light, run 1, well a = 9060.

Only “uninduced reporter light, run 1, well a” (2 entries from above):
CG9101 [DRSC20152]	9538
Tsp42Ef [DRSC06191]	16720
